We go through one molecule from paper PMC6692053.

Results are given in words; binding and its absence hold for the method and conditions named.

This test concerns the target TdfH on the tdfJ mutant strain MCV928 (Neisseria gonorrhoeae (endogenous in strain MCV928, FA19 background)). The test is described as follows: far-Western, overlay or dot blot; whole cells (N. gonorrhoeae or E. coli) of a standardized optical density applied to nitrocellulose in a dot blot apparatus, blocked in 5% nonfat dry milk in low-salt TBS, probed 1 h with 0.2 μM S100A7-HRP in blocker, colorimetric (DAB) detection; only the binder purified.

B1: horseradish peroxidase (HRP)-labeled S100A7 (protein, UniProt P31151 1-101)
chain: MSNTQAERSIIGMIDMFHKYTRRDDKIEKPSLLTMMKENFPNFLSACDKKGTNYLADVFEKKDKNEDKKIDFSEFLSLLGDIATDYHKQSHGAAPCSGGSQ
As for B1, the binding entry is given as “no binding (tested: 0.2 μM S100A7-HRP)”.
